Measured values: article PMC12561186
Results are given in words; binding and its absence hold for the method and conditions named. In cells and extracts the contact can be indirect. Some results given as binding are weak or reduced against the parent protein; the word gives no strength.

Chains of the proteins cited; added tags and fusions are not shown.
UniProt O60678: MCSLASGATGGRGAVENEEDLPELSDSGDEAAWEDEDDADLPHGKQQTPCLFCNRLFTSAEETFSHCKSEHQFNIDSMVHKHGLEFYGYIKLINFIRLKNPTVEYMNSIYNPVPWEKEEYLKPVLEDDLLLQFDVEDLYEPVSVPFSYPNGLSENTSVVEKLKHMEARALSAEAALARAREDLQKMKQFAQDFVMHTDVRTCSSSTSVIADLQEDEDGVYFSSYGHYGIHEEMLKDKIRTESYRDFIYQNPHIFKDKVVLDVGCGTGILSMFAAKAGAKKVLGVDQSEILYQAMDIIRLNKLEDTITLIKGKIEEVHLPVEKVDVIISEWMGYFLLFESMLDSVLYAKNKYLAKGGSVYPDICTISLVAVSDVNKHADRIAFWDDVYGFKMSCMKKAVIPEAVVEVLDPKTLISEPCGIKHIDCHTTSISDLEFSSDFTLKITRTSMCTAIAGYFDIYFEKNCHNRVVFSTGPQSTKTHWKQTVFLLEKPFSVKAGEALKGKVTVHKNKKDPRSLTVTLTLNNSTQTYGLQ
UniProt P23526: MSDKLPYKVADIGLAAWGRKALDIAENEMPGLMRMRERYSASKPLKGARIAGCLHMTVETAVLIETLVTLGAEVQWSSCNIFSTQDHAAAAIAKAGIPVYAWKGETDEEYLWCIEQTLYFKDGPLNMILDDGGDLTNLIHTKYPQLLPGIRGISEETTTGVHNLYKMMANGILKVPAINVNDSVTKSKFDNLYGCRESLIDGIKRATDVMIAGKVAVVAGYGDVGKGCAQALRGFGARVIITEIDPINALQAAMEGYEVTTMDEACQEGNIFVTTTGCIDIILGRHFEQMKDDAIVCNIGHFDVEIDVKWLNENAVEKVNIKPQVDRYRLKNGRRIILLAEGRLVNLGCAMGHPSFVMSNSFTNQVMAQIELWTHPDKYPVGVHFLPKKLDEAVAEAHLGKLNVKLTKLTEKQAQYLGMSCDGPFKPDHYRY

How the values were obtained:
STIP1, exogenous = STIP1, exogenous (UniProt P31948); experiment: co-IP; exogenously expressed proteins; cells lysed in RIPA buffer at 4°C, indicated antibodies overnight at 4°C, protein A/G agarose beads, western blot
PRMT3, exogenous = PRMT3, exogenous (UniProt O60678); experiment: as above
[1] = target: protein arginine methyltransferase 3 (PRMT3), endogenous (human (endogenous in ESCC cells)) (UniProt O60678); experiment: co-IP; endogenous proteins; cells lysed in RIPA buffer at 4°C, indicated antibodies overnight at 4°C, protein A/G agarose beads, four washes with RIPA, western blot; AHCY-LDHA also after STIP1 knockdown or overexpression
[2] = target: stress‐induced phosphoprotein 1 (STIP1), endogenous (human (endogenous in ESCC cell lines KYSE450, KYSE510)) (UniProt P31948); experiment: as above

binding (STIP1, exogenous)	binding (PRMT3, exogenous)	binding [1]	binding [2]	Substance
binds	binds			AHCY, exogenous (from UniProt P23526 1-432) (enzyme)
		binds	binds	adenosylhomocysteinase (AHCY), endogenous (from UniProt P23526 1-432) (enzyme)
